In article PMC4042850 one finds binding data, which are given here for one molecule.

Results are given in words; binding and its absence hold for the method and conditions named. Where a sequence is shown, tags or fusion partners need not be part of it.

Assay [1] deals with titin single domain A169 (human). Kind of assay: far-Western, overlay or dot blot; filter-binding assay: purified titin constructs spotted (approx. 1 µg; A169-TK in 10-fold lower quantity) on nitrocellulose, blocked with TBST/5% milk, incubated 3 h with biotinylated MuRF1-coiled-coil at 0.5 µg/ml in TBST/1% milk; detection with streptavidin-alkaline phosphatase and NBT/BCIP; both purified.

Assay [2] has as its target titin A168–A170^ΔKTLE (human). The description is as above.

B1: His6-MuRF1-coiled-coil (aa169–263) (domain or fragment, UniProt Q969Q1 169-263)
chain: ELNNCISMLVAGNDRVQTIITQLEDSRRVTKENSHQVKEELSQKFDTLYAILDEKKSELLQRITQEQEKKLSFIEALIQQYQEQLDKSTKLVETA
modifications: biotinylated with NHS-PEG4-Biotin
With B1, the binding entry in assay [1] and in assay [2] was “no binding (tested: 0.5 µg ml^−1 MuRF1-coiled-coil)” each time.
